# Laboratory results: PubChem BioAssay AID504786 (Drosophila RNAi Screening Center, 2011)
# Assay: 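Knock-downs reducing HIF reporter induction by the iron chelator DFO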 (primary screen)
# System: Drosophila S2 cells with a stable HIF luciferase reporter
# Knock-down reagent: long dsRNA against Drosophila genes, about 0.2 µg dsRNA per well of a 384-well plate
# Duration: three days of knock-down, then 20 h of DFO before reading
# Conditions: desferrioxamine (DFO) at 100 µM, an iron chelator that mimics hypoxia, for 20 h
# Measured: 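HIF reporter luminescence in cells given 100 µM DFO for 20 h, using the mouse ldh-a hypoxia-response element, scored as per-plate z-scores; higher means greater loss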
# Reading the numbers: z-score: higher = stronger loss of HIF reporter signal
# In all, the deposit lists about 21,000 reagents; below is a random part of those that have a named target and a result. 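Primary screen; positive scores mean lost reporter signal, so the sign may be inverted from the usual convention.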 Reagents against one gene are numbered here. Reagent sequences are not shown.
target gene,dsRNA no.,"z-score, replicate 1","z-score, replicate 2","z-score, replicate 3","z-score, replicate 4"
CG11060,1,-0.3,-0.4,,
CG7231,1,-0.2,-0.7,,
"ATPsynCF6L (ATP synthase, coupling factor 6-like)",1,-0.3,-0.4,,
DNaseII (Deoxyribonuclease II),1,-0.1,-0.2,,
GATAe,1,-0.4,0.4,,
CG13751,1,-0.3,0,,
CG7236,1,-0.2,0.1,,
GXIVsPLA2,1,-0.4,-0.5,,
CG12984,1,-0.3,-0.3,,
Nipsnap,1,-0.3,-0.1,,
TpnC73F (Troponin C at 73F),1,-0.1,-0.4,,
CG5790,1,-0.3,-0.7,,
CG13681 (retired record),1,-0.1,0.5,,
CG13681 (retired record),2,-0.2,0.6,,
CG13681 (retired record),3,-0.3,0,,
CG13681 (retired record),4,-0.4,0.3,,
CG13681 (retired record),5,-0.1,0.3,,
CG13681 (retired record),6,0,0,,
CG32982,1,1.1,2.9,,
CG32982,2,-0.3,-0.3,,
CG32982,3,-0.4,0,-0.2,-0.3
CG32982,4,-0.1,0,,
Arp10 (Actin-related protein 10),1,-0.1,0,,
Agps (Alkylglycerone phosphate synthase),1,0.2,0.5,,
CG11269,1,-0.1,-0.2,,
Ugt36E1 (UDP-glycosyltransferase family 36 member E1),1,-0.3,-0.1,,
Eig71Eb (Ecdysone-induced gene 71Eb),1,-0.3,-0.4,,
CG6325,1,-0.4,-0.8,,
Dbct (Dihydrolipoamide branched chain transacylase E2),1,-0.4,-0.5,,
Sec16 (Secretory 16),1,-0.4,-0.4,,
Sec16 (Secretory 16),2,-0.2,-0.4,,
CG13284,1,-0.3,-0.3,,
Tctp (Translationally controlled tumor protein),1,-0.2,-0.1,,
Ocho,1,-0.2,-0.4,,
CG6845,1,-0.2,-0.2,,
LysRS (Lysyl-tRNA synthetase),1,-0.1,1.2,,
CG31178,1,-0.1,0.1,,
otk2 (off-track2),1,-0.3,-0.4,,
prc (pericardin),1,-0.3,-0.2,,
Ir76a (Ionotropic receptor 76a),1,-0.4,-0.4,,
Lsm10,1,-0.2,-0.1,,
CG33223,1,-0.4,-0.3,,
Or49a (Odorant receptor 49a),1,-0.3,-0.3,,
CG31534 (retired record),1,-0.2,-0.2,,
CG31534 (retired record),2,-0.2,-0.6,,
CG42390,1,-0.3,-0.5,,
CG4520,1,-0.5,-0.6,,
CG14960,1,-0.1,-0.5,,
CG12521,1,-0.1,-0.5,,
CG9171,1,-0.3,-0.4,,
CG32726,1,-0.3,-0.3,,
GluRIIE (Glutamate receptor IIE),1,-0.6,0,,
mtTFB2 (mitochondrial transcription factor B2),1,-0.3,0.2,,
sif (still life),1,-0.3,-0.2,,
sif (still life),2,-0.2,-0.7,,
Ser6 (Serine protease 6),1,-0.1,-0.3,,
Rpt6R (Regulatory particle triple-A ATPase 6-related),1,-0.3,-0.4,,
CG12869,1,-0.4,0.1,,
CG33017,1,-0.3,-0.4,,
CG33017,2,-0.4,-1,,
CG17065,1,0.7,0.8,,
CG44085,1,-0.4,3.5,,
vanin-like,1,-0.2,-0.2,,
CG10560,1,0.2,0.7,,
CG11349,1,-0.2,-0.3,,
CG18223,1,0,0,,
Cyp4ac1 (Cytochrome P450 4ac1),1,-0.3,-0.5,,
CG14454,1,-0.2,-0.5,,
Reph (Regulator of eph expression),1,-0.4,-0.3,,
CG15209,1,-0.2,0.3,,
BBS1 (Bardet-Biedl syndrome 1),1,1,-0.2,,
SA1 (Stromalin 1),1,0,0.1,,
Ubc2 (Ubiquitin conjugating enzyme 2),1,-0.2,-0.3,,
Ubc2 (Ubiquitin conjugating enzyme 2),2,0.1,1.1,,
PPO2 (Prophenoloxidase 2),1,-0.3,-0.2,,
LSm3 (Like Sm 3),1,-0.3,-0.5,,
Ugt37A3 (UDP-glycosyltransferase family 37 member A3),1,-0.2,0.1,,
CG12093,1,-0.2,-0.2,,
NaPi-III (Na[+]-dependent inorganic phosphate cotransporter type III),1,-0.2,-0.4,,
NaPi-III (Na[+]-dependent inorganic phosphate cotransporter type III),2,0.8,-0.4,,
CG7381,1,-0.3,-0.2,,
CG18213,1,-0.3,-0.2,,
CG32681,1,-0.1,-0.2,,

Ordered by “z-score, replicate 1” (lowest first): some entries from above.
target gene,dsRNA no.,"z-score, replicate 1","z-score, replicate 2","z-score, replicate 3","z-score, replicate 4"
CG13681 (retired record),4,-0.4,0.3,,
CG32982,3,-0.4,0,-0.2,-0.3
CG32982,2,-0.3,-0.3,,
Ugt36E1 (UDP-glycosyltransferase family 36 member E1),1,-0.3,-0.1,,
CG13681 (retired record),5,-0.1,0.3,,
CG32982,4,-0.1,0,,
Arp10 (Actin-related protein 10),1,-0.1,0,,
CG11269,1,-0.1,-0.2,,
CG13681 (retired record),6,0,0,,
Agps (Alkylglycerone phosphate synthase),1,0.2,0.5,,
CG32982,1,1.1,2.9,,
